The record followed here is paper PMC12040169 (PLOS Biology, 2025).

The other results are listed elsewhere or left out.

This experiment relates to T1, CTL2-GFP (C. trachomatis L2/434/Bu, GFP-expressing).
T1 construct: L2/434/Bu, GFP-expressing
Set-up: species or system HeLa; Intracellular C. trachomatis growth in HeLa cells, bulk GFP fluorescence relative to DMSO. The following applies: bulk GFP, single well; 28.5 h, 10 µM; inhibitor.
For the molecule `CCc1c(C)sc(NC(=O)C2C3C=CC(C3)C2C(=O)O)c1C(N)=O` (centres unmarked) [CBK265433], the “% of control remaining” value is reported as 121.449%.

Consider `O=C(CSc1nnc(-c2ccncc2)n1-c1ccccc1)N/N=C/c1ccco1` [CBK262828], for which the “% of control remaining” value is listed as 100%.

In the case of `O=C(NCCn1cncn1)C1(c2ccccc2F)CC1` [CBK283087], the “% of control remaining” value is recorded as 108.489%.

As for `FC(F)(F)c1cccc(OCCN2CCOCC2)n1` [CBK113289], the “% of control remaining” value stood at 58.8853%.

As to `COC(=O)[C@@H]1CN(C(=O)c2ccc(OC)cc2)CCN1C(C)=O` [CBK289578], the “% of control remaining” value is 134.638%.

With `OC1CCN(CC(O)Cn2c3ccccc3c3ccccc32)CC1` (centres unmarked) [CBK305784], the “% of control remaining” value is given as 94.5851%.

For the molecule `O=[N+]([O-])c1cnc(NCCCn2ccnc2)c([N+](=O)[O-])c1` [CBK262511], the “% of control remaining” value is on record as 106.413%.

`CN(C)S(=O)(=O)N(CC(=O)NCc1ccccc1Cl)c1ccccc1` [CBK269081]: the “% of control remaining” value is reported as 90.1379%.

For the molecule `O=C(N[C@@H](Cn1cc(Cl)c(=O)[nH]c1=O)C(=O)O)C1CCC1` [CBK289659], the “% of control remaining” value was found to be 160.07%.

Take `CSCCN(C)C(=O)c1nnn(Cc2ccc(F)cc2F)c1C` [CBK306468]: the “% of control remaining” value is listed as 110.023%.

On to `CC(=O)Oc1cccc(N2C(=O)c3ccc(Oc4cccc(N)c4)cc3C2=O)c1` [CBK261099], for which the “% of control remaining” value is listed as 100.575%.

In the case of `COc1ccccc1-c1ccc(CC2(C(=O)NCc3cccs3)CCOCC2)cc1` [CBK286517], the “% of control remaining” value came to 108.641%.

Consider `CS(=O)(=O)N1CC2(CCN(Cc3cccnc3)CC2)c2ccccc21` [CBK084006], for which the “% of control remaining” value worked out at 94.2917%.

Consider `O=C1CC(c2ccccc2)n2nc(C(F)(F)F)nc2N1` (centres unmarked) [CBK288063], for which the “% of control remaining” value was found to be 107.114%.

Take `Oc1ccc2ccccc2c1/C=N/Nc1nc(NCc2ccccc2)nc(N2CCOCC2)n1` [CBK261233]: the “% of control remaining” value turned out to be 100%.

With `COC(=O)CCc1ccc(S(=O)(=O)N2CCCN(Cc3ccc(C)o3)CC2)cc1` [CBK063081], the “% of control remaining” value was found to be 127.215%.

As to `O=C(O)c1cc(C(=O)O)c2ccccc2n1` [CBK262304], the “% of control remaining” value is on record as 138.403%.

As to `Cc1cc(C)n(-c2nc3ccccc3nc2N2CCN(S(=O)(=O)c3ccc(F)c(C)c3)CC2)n1` [CBK268508], the “% of control remaining” value is 112.253%.

Consider `Cc1ccc(S(=O)(=O)Cc2ccc(C(=O)NCc3ccco3)cc2)cc1` [CBK268630], for which the “% of control remaining” value came out at 94.855%.

As for `COc1ccc([C@@]23CC=C(N(Cc4ccccc4)C(=O)Nc4ccc(F)c(F)c4)C[C@@H]2N(C)CC3)cc1OC` [CBK050179], the “% of control remaining” value came out at 27.9795%.

With `Cc1c(NC(=O)c2ccccc2Cl)c(=O)n(-c2ccccc2)n1C` [CBK088068], the “% of control remaining” value turned out to be 99.9591%.

For the molecule `COc1ccc(CCNc2c3c(c(C#N)c4nc5ccccc5n24)CCC3)cc1OC` [CBK263147], the “% of control remaining” value is on record as 82.7685%.

`OC(COc1cccc2c1CCCC2)CN1CCC(O)(c2ccccc2)CC1` (centres unmarked) [CBK003585]: the “% of control remaining” value was 108.459%.

For the molecule `O=C(NCc1cc(C2CC2)[nH]n1)C1(c2ccccc2F)CC1` [CBK283140], the “% of control remaining” value came out at 124.398%.

As for `COc1cc(OC)nc(CN2C(=O)CC3(C2=O)C(=O)N(CC(=O)c2ccccc2)c2ccc(C)cc23)n1` (centres unmarked) [CBK076059], the “% of control remaining” value stood at 99.6922%.

Regarding `COC(=O)C1CCCN1C(=O)C1(Oc2ccc(C)cc2)CCNCC1` (centres unmarked) [CBK306655], the “% of control remaining” value was 146.27%.

As to `COc1cccc(NC(=O)CCN2CCN(CCO)CC2)c1` [CBK264207C], the “% of control remaining” value worked out at 129.762%.

For `O=C(O)c1ccccc1C(=O)Nc1cccc(-c2noc(-c3cccc(F)c3)n2)c1` [CBK299813], the “% of control remaining” value was 158.305%.

For the molecule `Nc1ncc(-c2cccnc2)nc1NC1CCC(O)CC1` (centres unmarked) [CBK063840], the “% of control remaining” value turned out to be 122.898%.

Consider `Cc1nc2ccccc2n1CCNC(=O)c1ccccc1SCc1ccc(C#N)cc1` [CBK297082], for which the “% of control remaining” value was found to be 108.633%.

`Clc1ccc(Nc2ncnc3ccccc23)cc1` [CBK072625]: the “% of control remaining” value was 91.7805%.

On to `CC(C)(C)OC(=O)NCCC(=O)Oc1ccc2c3c(c(=O)oc2c1)CCCC3` [CBK265008], for which the “% of control remaining” value was found to be 100%.

With `CC1CC1C(=O)NCC(=O)Nc1nc2ccc(OC(F)(F)F)cc2s1` (centres unmarked) [CBK297874], the “% of control remaining” value is reported as 75.5984%.

Regarding `O=C(O)CCCCCNS(=O)(=O)c1ccc(Cl)cc1` [CBK261940], the “% of control remaining” value was 115.069%.

On to `O=C(O)CCCC(=O)Nc1ccccc1-c1nc2ccccc2[nH]c1=O` [CBK280451], for which the “% of control remaining” value was determined as 122.442%.

For the molecule `Cc1noc(C)c1CCC(=O)NC(Cc1ccncc1)C1CC(O)C1` (centres unmarked) [CBK306790], the “% of control remaining” value amounted to 116.92%.

`CN(C)CCN(C)c1cncc(-c2cc3ccccc3o2)n1` [CBK066028]: the “% of control remaining” value was 98.4261%.

On to `COc1ccc(CNC(=O)c2cc(S(=O)(=O)N3CCCC3)cs2)cc1` [CBK307576], for which the “% of control remaining” value is recorded as 107.005%.

With `CCOC(=O)C1CCCN(S(=O)(=O)c2sc3ccc(Cl)cc3c2C)C1` (centres unmarked) [CBK154797], the “% of control remaining” value was determined as 120.338%.

As to `CN1C(=O)CC2(C1=O)C(=O)N(CCCOc1ccc(F)cc1)c1ccccc12` (centres unmarked) [CBK075513], the “% of control remaining” value is recorded as 116.877%.

On to `Cc1onc(-c2ccccc2)c1C(=O)Nc1cccc(S(=O)(=O)N2CCOCC2)c1` [CBK268159], for which the “% of control remaining” value came out at 110.591%.

For the molecule `O=C(O)CCC(=O)N[C@H]1CCN2C(=O)c3cc(-c4ccc(Cl)cc4)ccc3NC(=O)[C@H]12` [CBK289275], the “% of control remaining” value was 107.166%.

`COc1ccc(-c2nnc3c4ccccc4c(C)nn23)cc1S(=O)(=O)N1CCCCC1` [CBK266640]: the “% of control remaining” value came out at 117.307%.

Regarding `Nc1ncc(-c2ccc(C(=O)N3CCOCC3)cc2)nc1-c1ccsc1` [CBK200422], the “% of control remaining” value is on record as 89.859%.

Turning to `CCOc1ccccc1N1CCN(C(C(=O)O)c2c[nH]c3ccc(CO)cc23)CC1` (centres unmarked) [CBK286816], the “% of control remaining” value is 143.401%.

For the molecule `CC(NC(=O)c1cccc(-n2cnnc2)c1)c1ccc2c(c1)CCC2` (centres unmarked) [CBK282707], the “% of control remaining” value worked out at 142.627%.

With `Cc1ccc(Cn2nc(NC(=O)C3CCCCC3)c3ccccc32)cc1` [CBK048217], the “% of control remaining” value turned out to be 122.462%.

Consider `CC(=O)NC[C@H]1CN(c2ccc3c(c2)CCN(C(=O)Oc2ccccc2)CC3)C(=O)O1` [CBK018498], for which the “% of control remaining” value was 9.2087%.

As for `O=C(Nc1cccc([N+](=O)[O-])c1)c1ccc(CSc2ccccc2)cc1` [CBK265295], the “% of control remaining” value was found to be 110.504%.

Turning to `COc1cc(C)c(Nc2cccc(/C=C/c3ccccc3)n2)cc1OC` [CBK037725], the “% of control remaining” value was 130.32%.

As for `C[C@@H](Cn1nc2c(cc1=O)CCCC2)NC(=O)c1ccc(F)cc1` [CBK284562], the “% of control remaining” value is listed as 155.486%.

For the molecule `O=S(=O)(c1ccccc1)N1Cc2cccc3[nH]cc(c23)C1` [CBK153275], the “% of control remaining” value came to 104.766%.

Regarding `CC(C)CN1CC(C(=O)NCc2ccccc2-n2ccnc2)CC1=O` (centres unmarked) [CBK282189], the “% of control remaining” value is on record as 131.336%.

For the molecule `COc1ccc(C(=O)Nc2ccc(S(=O)(=O)Nc3nccs3)cc2)cc1I` [CBK263880], the “% of control remaining” value is listed as 43.2157%.

Consider `O=C(C1CC1)N1CCC(c2[nH]ncc2-c2ccncc2)CC1` [CBK284238], for which the “% of control remaining” value was 162.892%.

`O=C(NCc1ccc2c(c1)CCCO2)C1CC2C=CC1C21CC1` (centres unmarked) [CBK281503]: the “% of control remaining” value is recorded as 122.685%.

Consider `Cc1c(S(=O)(=O)Nc2ccnn2C)cnn1-c1ccccc1` [CBK062079], for which the “% of control remaining” value came to 111.523%.

In the case of `COc1ccc(CC(=O)N2CCCC2c2cccc(Cc3cccc(F)c3)n2)cc1` (centres unmarked) [CBK286220], the “% of control remaining” value was found to be 70.527%.

Turning to `CS(=O)(=O)N[C@H]1C[C@H]2C(=O)Nc3ccc(-c4ccc(F)cc4F)cc3C(=O)N2C1` [CBK289368], the “% of control remaining” value was 105.233%.

In the case of `CC(=O)Nc1ccc(S(=O)(=O)N(C)CC(=O)O)cc1` [CBK267570], the “% of control remaining” value came to 100.815%.

Turning to `O=C(Nc1cccc(C=Cc2ccccn2)c1)c1c[nH]nc1-c1ccc(F)cc1` [CBK295335], the “% of control remaining” value was found to be 110.907%.

For `COc1ccc(C2CCCN2C(=O)CC2CCN(C(=O)CC3CCCCC3)CC2)cc1` (centres unmarked) [CBK286263], the “% of control remaining” value amounted to 103.778%.

`Cc1ccc(C)n1C1CC(C)(C)NC(C)(C)C1` [CBK019116]: the “% of control remaining” value is 100%.

For `CC1CCN(S(=O)(=O)c2ccc(C(=O)N[C@@H](C)C(=O)O)cc2)CC1` [CBK297106], the “% of control remaining” value worked out at 120.829%.

As for `CN1CCN(c2ccccc2NC(=O)c2cccc3c(Br)cccc23)CC1` [CBK267894], the “% of control remaining” value was determined as 96.7972%.

Take `Cc1ccccc1-c1ccc(C(=O)N2CCN(C)CC2)c(NCc2cccnc2)n1` [CBK076125]: the “% of control remaining” value was 100%.

Consider `CN(Cc1ccccc1N1CCOCC1)C(=O)Cc1cn2ccsc2n1` [CBK305830], for which the “% of control remaining” value amounted to 87.6399%.

`CCOC(=O)Cc1csc(SC(C)C(=O)N2CCc3ccccc3C2)n1` (centres unmarked) [CBK305586]: the “% of control remaining” value was 119.76%.

For `COc1ccc(Br)cc1S(=O)(=O)NCc1cccnc1` [CBK264023], the “% of control remaining” value was 112.555%.

Consider `c1cnc(N2CCN(CCN3CCOCC3)CC2)c(OCCN2CCOCC2)n1` [CBK082899], for which the “% of control remaining” value worked out at 119.638%.

Turning to `CCNC(=O)Nc1ncc(-c2ccc(Oc3ccccc3)cc2)c2cccnc12` [CBK070636], the “% of control remaining” value is reported as 95.0922%.

Take `CN(C)/C=N/c1nc2c(ccn2C2CC(O)C(CO)O2)c(=O)[nH]1` (centres unmarked) [CBK201276]: the “% of control remaining” value was 154.3%.

Regarding `COc1cc(CNC(=O)NC(=O)C2CCN(C(C)=O)CC2)cc(OC)c1OC` [CBK034833], the “% of control remaining” value came out at 110.675%.

With `Cc1noc(C)c1NC(=O)c1ccnc2ccccc12` [CBK200302], the “% of control remaining” value is on record as 158.487%.

As to `Cc1cc([N+](=O)[O-])ccc1NC(=O)Cn1cnc2c1c(=O)n(C)c(=O)n2C` [CBK263162], the “% of control remaining” value is reported as 113.118%.

As for `COC(=O)c1cccc2c(C)c(C)[nH]c12` [CBK001563], the “% of control remaining” value is 99.8629%.

As to `O=C(O)c1ccc(NC(=O)c2ccccc2NC(=O)c2cccc(Br)c2)cc1` [CBK265517], the “% of control remaining” value is given as 115.254%.
